Source: doi:10.1101/2024.08.19.608704
Like-named read-outs stand apart in the source and are kept apart here. No constants are given. Whether binding was seen depends on the method and setting. Binding seen in cells or lysates may run through a third protein. Here binding means that the protein was enriched with, or labelled near, the bait; the list need not be complete.

Columns and labels:
[1] = target: mouse prion protein (MoPrP) (mouse (endogenous in C57BL/6 brain)) (UniProt P04925); assay: affinity purification with mass spectrometry
[2] = target: mouse prion protein (MoPrP) (mouse (endogenous in C57BL/6 brain)) (UniProt P04925); assay: affinity purification with mass spectrometry; remark: listed apart in the source

Molecule	binding [1]	binding [2]
neural cell adhesion molecule 1 (NCAM1) (from UniProt P13595 20-1115)	binds	–
contactin-1 (protein, UniProt P12960 21-1001) DFTWHRRYGHGVSEEDKGFGPIFEEQPINTIYPEESLEGKVSLNCRARASPFPVYKWRMNNGDVDLTNDRYSMVGGNLVINNPDKQKDAGVYYCLASNNYGMVRSTEATLSFGYLDPFPPEERPEVKVKEGKGMVLLCDPPYHFPDDLSYRWLLNEFPVFITMDKRRFVSQTNGNLYIANVESSDRGNYSCFVSSPSITKSVFSKFIPLIPIPERTTKPYPADIVVQFKDIYTMMGQNVTLECFALGNPVPDIRWRKVLEPMPSTAEISTSGAVLKIFNIQLEDEGLYECEAENIRGKDKHQARIYVQAFPEWVEHINDTEVDIGSDLYWPCIATGKPIPTIRWLKNGYSYHKGELRLYDVTFENAGMYQCIAENAYGSIYANAELKILALAPTFEMNPMKKKILAAKGGRVIIECKPKAAPKPKFSWSKGTEWLVNSSRILIWEDGSLEINNITRNDGGIYTCFAENNRGKANSTGTLVITNPTRIILAPINADITVGENATMQCAASFDPALDLTFVWSFNGYVIDFNKEITHIHYQRNFMLDANGELLIRNAQLKHAGRYTCTAQTIVDNSSASADLVVRGPPGPPGGLRIEDIRATSVALTWSRGSDNHSPISKYTIQTKTILSDDWKDAKTDPPIIEGNMESAKAVDLIPWMEYEFRVVATNTLGTGEPSIPSNRIKTDGAAPNVAPSDVGGGGGTNRELTITWAPLSREYHYGNNFGYIVAFKPFDGEEWKKVTVTNPDTGRYVHKDETMTPSTAFQVKVKAFNNKGDGPYSLVAVINSAQDAPSEAPTEVGVKVLSSSEISVHWKHVLEKIVESYQIRYWAGHDKEAAAHRVQVTSQEYSARLENLLPDTQYFIEVGACNSAGCGPSSDVIETFTRKAPPSQPPRIISSVRSGSRYIITWDHVVALSNESTVTGYKILYRPDGQHDGKLFSTHKHSIEVPIPRDGEYVVEVRAHSDGGDGVVSQVKISGVSTLS	–	binds
neural cell adhesion molecule 2 (NCAM2) (protein, UniProt O35136 20-837) LLQVTISLSKVELSVGESKFFTCTAIGEPESIDWYNPQGEKIISTQRVMLQKEGVRSRLTIYNANIEDAGIYRCQATDAKGQTQEATVVLEIYQKLTFREVVSPQEFKQGEDAEVVCRVSSSPAPAVSWLYHNEEVTTIPDNRFAVLANNNLQILNINKSDEGIYRCEGRVEARGEIDFRDIIVIVNVPPAIMMPQKSFNATAERGEEMTLTCKASGSPDPTISWFRNGKLIEENEKYILKGSNTELTVRNIINKDGGSYVCKATNKAGEDQKQAFLQVFVQPHILQLKNETTSENGHVTLVCEAEGEPVPEITWKRAIDGVMFSEGDKSPDGRIEVKGQHGRSSLHIRDVKLSDSGRYDCEAASRIGGHQRSMHLDIEYAPKFVSNQTMYYSWEGNPINISCDVTANPPASIHWRREKLLLPAKNTTHLKTHSVGRKMILEIAPTSDNDFGRYNCTATNRIGTRFQEYILELADVPSSPHGVKIIELSQTTAKISFNKPESHGGVPIHHYQVDVKEVASETWKIVRSHGVQTMVVLSSLEPNTTYEIRVAAVNGKGQGDYSKIEIFQTLPVREPSPPSIHGQPSSGKSFKISITKQDDGGAPILEYIVKYRSKDKEDQWLEKKVQGNKDHIILEHLQWTMGYEVQITAANRLGYSEPTVYEFSMPPKPNIIKDTLFNGLGLGAIIGLGVAALLLILVVTDVSCFFIRQCGLLMCITRRMCGKKSGSSGKSKELEEGKAAYLKDGSKEPIVEMRTEDERITNHEDGSPVNEPNETTPLTEPEKLPLKEENGKEVLNAETIEIKVSNDIIQSKEDDIKA	–	binds
